Measured values from patent US10577349B2 (Sanford Burnham Prebys Medical Discovery Institute, priority 2015, dated 2020).
At least one structure is not confirmed: it was looked up by name or label, or the drawing left a doubt.

The chains behind the UniProt entries cited, without tags or fusion partners.
UniProt Q04637, whole entry: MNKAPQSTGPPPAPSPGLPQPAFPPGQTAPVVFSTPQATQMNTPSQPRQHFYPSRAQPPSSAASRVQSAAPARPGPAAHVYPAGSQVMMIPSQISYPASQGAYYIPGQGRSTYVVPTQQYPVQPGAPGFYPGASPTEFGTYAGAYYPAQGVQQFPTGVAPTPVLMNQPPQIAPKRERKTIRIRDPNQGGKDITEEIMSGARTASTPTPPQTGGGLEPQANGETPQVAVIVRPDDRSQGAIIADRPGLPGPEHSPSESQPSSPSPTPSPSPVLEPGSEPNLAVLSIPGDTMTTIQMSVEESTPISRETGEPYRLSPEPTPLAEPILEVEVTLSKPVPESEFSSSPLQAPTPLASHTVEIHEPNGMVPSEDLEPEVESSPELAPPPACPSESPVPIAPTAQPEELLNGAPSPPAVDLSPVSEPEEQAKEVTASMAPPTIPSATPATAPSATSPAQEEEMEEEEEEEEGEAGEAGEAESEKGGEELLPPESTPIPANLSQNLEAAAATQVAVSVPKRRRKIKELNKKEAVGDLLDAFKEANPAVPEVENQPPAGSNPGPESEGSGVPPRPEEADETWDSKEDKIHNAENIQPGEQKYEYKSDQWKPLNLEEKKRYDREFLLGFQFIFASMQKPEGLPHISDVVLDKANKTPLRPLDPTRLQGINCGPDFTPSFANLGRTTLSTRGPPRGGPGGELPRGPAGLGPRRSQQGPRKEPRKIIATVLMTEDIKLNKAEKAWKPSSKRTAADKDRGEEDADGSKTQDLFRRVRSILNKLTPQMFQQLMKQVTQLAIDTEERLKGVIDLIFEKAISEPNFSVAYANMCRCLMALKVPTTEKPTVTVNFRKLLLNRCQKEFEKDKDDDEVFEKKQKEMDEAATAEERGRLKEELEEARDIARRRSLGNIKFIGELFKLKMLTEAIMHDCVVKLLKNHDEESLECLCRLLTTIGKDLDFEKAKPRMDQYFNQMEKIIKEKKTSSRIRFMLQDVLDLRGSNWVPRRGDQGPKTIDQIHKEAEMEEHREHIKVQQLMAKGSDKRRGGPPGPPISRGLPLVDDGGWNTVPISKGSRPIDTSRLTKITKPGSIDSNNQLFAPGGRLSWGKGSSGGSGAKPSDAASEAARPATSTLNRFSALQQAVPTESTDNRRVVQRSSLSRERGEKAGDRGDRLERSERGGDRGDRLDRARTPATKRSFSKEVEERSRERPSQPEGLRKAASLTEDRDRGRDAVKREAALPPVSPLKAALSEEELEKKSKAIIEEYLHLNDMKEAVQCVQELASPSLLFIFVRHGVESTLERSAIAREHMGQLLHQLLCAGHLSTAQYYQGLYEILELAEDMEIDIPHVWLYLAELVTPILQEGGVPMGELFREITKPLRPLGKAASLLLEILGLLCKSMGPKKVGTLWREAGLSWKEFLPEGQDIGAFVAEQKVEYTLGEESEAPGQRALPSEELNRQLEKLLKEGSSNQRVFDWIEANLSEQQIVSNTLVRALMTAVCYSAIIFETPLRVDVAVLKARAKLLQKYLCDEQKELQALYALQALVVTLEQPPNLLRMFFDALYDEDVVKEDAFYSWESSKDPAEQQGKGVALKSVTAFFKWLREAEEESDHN

Target: T1, eIF4F complex (Homo sapiens, UniProt Q04637)
T1 construct: PLX4032), or Compound 38; endogenous in cells; host or cells: A375, A375R, Lu1205R, WM793R melanoma cells
Assay: m7GTP pull-down assay, BRAFi-sensitive and -resistant melanoma cells
Type: cell-based
Method: As previously described (Dowling R J, et al. mTORC1-mediated cell proliferation, but not cell growth, controlled by the 4E-BPs. Science. 2010; 328:1172-6), cells growing in 100 mm plates were washed (cold PBS), collected, and lysed in 50 mM MOPS/KOH (7.4), 100 mM NaCl, 50 mM NaF, 2 mM EDTA, 2 mM EGTA, 1% NP40, 1% Na-DOC, 7 mM β-mercaptoethanol, protease inhibitors and phosphatase inhibitor cocktail (Roche). Lysates were incubated with m7-GDP-agarose beads (Jena Bioscience) for 20 minutes, washed 4 times with the washing buffer containing 50 mM MOPS/KOH (7.4), 100 mM NaCl, 50 mM NaF, 0.5 mM EDTA, 0.5 mM EGTA, 7 mM (3-mercaptoethanol, 0.5 mM PMSF, 1 mM Na3VO4 and 0.1 mM GTP, and bound proteins were eluted by boiling the beads in loading buffer. m7-GDP-agarose pulled down material was analyzed by Western blot analysis.
As levels of the eIF4F complex inversely correlate with the effectiveness of various cancer therapies, the integrity of the eIF4F complex after treating melanoma cells with a combination of BRAFi vemurafenib (PLX4032) and Compound 38 was assessed. […] Amounts of the indicated proteins in input (5%) or pull-down (50%) samples were determined by Western blotting; 3-actin served as a loading control (input) and to exclude contamination (m^7GTP pull-down).

Structure (SMILES): CCCS(=O)(=O)Nc1ccc(F)c(C(=O)c2c[nH]c3ncc(-c4ccc(Cl)cc4)cc23)c1F [PLX4032, vemurafenib, reference compound]
- dissociation of eIF4G1 from eIF4E in BRAFi-resistant cells (A375R, Lu1205R and WM793R cells): but not the BRAFi PLX4032
- eIF4G1 association with eIF4E (A375 and A375R, 24 hours): slightly reduced eIF4G1 association with eIF4E
